No constants are given. Whether binding was seen depends on the method and setting. In cells and extracts the contact can be indirect. Some binding calls cover weakened binding; strength is not graded here. Where a sequence is shown, tags or fusion partners need not be part of it.
Target: T1, HA-tagged S100A11 (full-length) (human) (UniProt P31949)
T1 sequence: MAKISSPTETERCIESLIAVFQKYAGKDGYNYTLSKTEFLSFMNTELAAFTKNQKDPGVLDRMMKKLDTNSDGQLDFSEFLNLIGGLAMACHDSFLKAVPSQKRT
Assay: co-IP; HEK293T co-transfected with HA-tagged S100A11 and Myc-tagged ANXA2; lysate precipitated with anti-HA antibody agarose beads; WB with HA or Myc antibody

Protein sequences, listed by entry. Tags and fused reporters are not part of them.
UniProt P07355: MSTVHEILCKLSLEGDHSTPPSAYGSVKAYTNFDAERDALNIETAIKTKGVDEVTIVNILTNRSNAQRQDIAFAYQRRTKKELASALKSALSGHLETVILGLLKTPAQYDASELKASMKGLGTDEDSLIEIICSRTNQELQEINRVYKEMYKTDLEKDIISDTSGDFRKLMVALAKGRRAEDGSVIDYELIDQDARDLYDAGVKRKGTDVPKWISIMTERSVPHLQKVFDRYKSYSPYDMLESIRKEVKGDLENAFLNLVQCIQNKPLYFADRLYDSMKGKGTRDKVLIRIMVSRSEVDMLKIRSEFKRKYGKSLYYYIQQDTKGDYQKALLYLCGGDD

## Myc-tagged annexin A2 (from UniProt P07355 1-339)
  binding: binds

— PMC11002074, “Lysyl oxidase-like 4 promotes the invasiveness of triple-negative breast cancer cells by orchestrating the invasive machinery formed by annexin A2 and S100A11 on the cell surface” (Frontiers in Oncology, 2024)
